Assay results reported in the supplement of paper PMC10849652.
The list shows a part of the results.

Protein sequences, listed by entry. Tags and fused reporters are not part of them. Lines headed by an entry give the natural chain unless they say otherwise; changes in a name come on top.
UniProt O43815: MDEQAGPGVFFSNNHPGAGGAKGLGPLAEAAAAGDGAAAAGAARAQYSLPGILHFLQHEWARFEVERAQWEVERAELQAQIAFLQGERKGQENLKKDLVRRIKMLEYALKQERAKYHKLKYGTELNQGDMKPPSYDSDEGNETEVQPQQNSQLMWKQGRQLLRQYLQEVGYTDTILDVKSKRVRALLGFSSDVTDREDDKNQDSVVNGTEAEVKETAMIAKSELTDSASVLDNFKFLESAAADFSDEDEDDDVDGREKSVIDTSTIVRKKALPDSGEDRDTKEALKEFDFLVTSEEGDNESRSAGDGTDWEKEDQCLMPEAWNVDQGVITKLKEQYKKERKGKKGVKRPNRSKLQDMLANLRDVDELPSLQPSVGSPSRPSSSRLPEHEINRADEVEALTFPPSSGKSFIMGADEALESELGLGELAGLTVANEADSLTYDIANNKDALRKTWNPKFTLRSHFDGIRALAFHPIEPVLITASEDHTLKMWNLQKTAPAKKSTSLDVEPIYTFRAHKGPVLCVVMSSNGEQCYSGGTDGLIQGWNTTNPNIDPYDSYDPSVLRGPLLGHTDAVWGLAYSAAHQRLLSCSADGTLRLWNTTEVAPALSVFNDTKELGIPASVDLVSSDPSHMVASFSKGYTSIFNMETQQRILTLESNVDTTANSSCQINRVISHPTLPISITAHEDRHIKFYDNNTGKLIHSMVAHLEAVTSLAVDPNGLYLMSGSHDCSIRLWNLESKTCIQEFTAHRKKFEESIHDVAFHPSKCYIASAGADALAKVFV
UniProt O60499: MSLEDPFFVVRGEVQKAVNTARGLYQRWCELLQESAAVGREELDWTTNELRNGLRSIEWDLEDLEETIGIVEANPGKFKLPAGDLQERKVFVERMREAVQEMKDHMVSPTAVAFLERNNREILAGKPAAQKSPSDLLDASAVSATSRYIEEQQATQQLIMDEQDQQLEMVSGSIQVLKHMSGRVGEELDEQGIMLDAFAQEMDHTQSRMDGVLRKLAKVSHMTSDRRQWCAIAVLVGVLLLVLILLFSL
UniProt O00268, whole entry, looked up: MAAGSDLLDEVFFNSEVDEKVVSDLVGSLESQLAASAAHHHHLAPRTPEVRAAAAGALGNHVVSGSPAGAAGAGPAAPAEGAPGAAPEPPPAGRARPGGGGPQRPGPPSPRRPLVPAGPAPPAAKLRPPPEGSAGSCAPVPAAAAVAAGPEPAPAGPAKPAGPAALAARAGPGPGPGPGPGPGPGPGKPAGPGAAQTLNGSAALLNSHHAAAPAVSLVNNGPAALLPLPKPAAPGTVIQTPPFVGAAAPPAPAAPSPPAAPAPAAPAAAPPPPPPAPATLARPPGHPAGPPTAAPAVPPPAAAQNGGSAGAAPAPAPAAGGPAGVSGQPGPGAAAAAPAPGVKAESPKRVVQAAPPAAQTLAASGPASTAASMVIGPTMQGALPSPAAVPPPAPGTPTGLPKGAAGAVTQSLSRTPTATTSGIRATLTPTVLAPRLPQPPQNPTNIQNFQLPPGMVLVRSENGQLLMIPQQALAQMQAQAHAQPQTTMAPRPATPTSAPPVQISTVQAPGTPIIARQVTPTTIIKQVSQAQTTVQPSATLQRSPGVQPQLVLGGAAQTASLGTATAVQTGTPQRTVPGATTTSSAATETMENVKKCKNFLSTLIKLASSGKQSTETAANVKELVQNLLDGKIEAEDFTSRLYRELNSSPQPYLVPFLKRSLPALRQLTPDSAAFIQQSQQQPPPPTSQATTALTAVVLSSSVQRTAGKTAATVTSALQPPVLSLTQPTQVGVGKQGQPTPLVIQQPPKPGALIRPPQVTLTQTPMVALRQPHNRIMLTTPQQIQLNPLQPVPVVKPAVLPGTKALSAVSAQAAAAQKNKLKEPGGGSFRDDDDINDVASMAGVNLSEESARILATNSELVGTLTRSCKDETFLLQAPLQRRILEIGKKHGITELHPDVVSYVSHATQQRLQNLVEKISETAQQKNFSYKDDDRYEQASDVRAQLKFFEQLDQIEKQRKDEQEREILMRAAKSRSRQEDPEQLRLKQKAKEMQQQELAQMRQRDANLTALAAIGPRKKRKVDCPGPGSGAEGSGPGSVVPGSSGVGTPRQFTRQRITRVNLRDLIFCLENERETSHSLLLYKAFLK
UniProt Q8NHG7: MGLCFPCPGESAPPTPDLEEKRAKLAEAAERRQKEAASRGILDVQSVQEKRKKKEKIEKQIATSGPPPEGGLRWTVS
UniProt P37802: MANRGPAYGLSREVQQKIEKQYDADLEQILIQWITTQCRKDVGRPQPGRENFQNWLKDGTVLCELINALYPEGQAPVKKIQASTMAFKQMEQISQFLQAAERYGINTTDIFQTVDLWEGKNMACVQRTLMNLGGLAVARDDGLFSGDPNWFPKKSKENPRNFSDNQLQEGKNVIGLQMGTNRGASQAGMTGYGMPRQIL
UniProt Q9UJZ1: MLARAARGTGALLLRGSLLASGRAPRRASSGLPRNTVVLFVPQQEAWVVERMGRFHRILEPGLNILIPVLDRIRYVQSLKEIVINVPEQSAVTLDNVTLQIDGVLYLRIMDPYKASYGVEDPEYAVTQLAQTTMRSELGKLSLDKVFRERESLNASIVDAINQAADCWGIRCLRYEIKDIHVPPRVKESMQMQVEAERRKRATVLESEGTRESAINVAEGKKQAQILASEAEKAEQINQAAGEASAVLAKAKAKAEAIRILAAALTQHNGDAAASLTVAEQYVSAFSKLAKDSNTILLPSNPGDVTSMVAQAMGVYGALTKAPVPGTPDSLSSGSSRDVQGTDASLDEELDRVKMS
UniProt P16949: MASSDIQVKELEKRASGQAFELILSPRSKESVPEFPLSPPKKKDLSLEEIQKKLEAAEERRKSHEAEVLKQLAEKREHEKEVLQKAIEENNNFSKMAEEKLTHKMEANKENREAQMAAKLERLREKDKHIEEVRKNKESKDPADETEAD
UniProt P61764, whole entry, looked up: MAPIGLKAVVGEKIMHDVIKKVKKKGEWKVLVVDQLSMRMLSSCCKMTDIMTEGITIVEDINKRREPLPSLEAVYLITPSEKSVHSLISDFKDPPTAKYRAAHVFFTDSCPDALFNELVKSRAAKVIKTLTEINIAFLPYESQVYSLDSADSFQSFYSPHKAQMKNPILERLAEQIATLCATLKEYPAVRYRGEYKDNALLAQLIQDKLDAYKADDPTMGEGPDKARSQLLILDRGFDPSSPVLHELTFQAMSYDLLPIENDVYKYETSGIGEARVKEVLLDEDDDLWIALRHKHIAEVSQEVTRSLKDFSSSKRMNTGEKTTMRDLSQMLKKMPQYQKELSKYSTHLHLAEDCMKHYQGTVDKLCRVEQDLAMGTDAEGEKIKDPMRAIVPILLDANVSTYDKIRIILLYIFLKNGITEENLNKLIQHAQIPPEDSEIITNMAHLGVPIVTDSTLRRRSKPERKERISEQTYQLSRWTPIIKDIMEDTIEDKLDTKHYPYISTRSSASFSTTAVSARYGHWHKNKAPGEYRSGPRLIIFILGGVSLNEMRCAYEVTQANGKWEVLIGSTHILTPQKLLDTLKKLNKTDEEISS
UniProt Q86Y82: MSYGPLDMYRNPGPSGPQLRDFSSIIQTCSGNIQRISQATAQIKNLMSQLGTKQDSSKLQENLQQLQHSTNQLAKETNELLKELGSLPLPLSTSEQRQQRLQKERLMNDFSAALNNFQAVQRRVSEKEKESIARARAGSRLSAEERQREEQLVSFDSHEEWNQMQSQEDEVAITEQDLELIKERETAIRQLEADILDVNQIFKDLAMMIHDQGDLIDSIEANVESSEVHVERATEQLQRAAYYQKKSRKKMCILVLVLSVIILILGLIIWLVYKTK
UniProt Q15542, whole entry, looked up: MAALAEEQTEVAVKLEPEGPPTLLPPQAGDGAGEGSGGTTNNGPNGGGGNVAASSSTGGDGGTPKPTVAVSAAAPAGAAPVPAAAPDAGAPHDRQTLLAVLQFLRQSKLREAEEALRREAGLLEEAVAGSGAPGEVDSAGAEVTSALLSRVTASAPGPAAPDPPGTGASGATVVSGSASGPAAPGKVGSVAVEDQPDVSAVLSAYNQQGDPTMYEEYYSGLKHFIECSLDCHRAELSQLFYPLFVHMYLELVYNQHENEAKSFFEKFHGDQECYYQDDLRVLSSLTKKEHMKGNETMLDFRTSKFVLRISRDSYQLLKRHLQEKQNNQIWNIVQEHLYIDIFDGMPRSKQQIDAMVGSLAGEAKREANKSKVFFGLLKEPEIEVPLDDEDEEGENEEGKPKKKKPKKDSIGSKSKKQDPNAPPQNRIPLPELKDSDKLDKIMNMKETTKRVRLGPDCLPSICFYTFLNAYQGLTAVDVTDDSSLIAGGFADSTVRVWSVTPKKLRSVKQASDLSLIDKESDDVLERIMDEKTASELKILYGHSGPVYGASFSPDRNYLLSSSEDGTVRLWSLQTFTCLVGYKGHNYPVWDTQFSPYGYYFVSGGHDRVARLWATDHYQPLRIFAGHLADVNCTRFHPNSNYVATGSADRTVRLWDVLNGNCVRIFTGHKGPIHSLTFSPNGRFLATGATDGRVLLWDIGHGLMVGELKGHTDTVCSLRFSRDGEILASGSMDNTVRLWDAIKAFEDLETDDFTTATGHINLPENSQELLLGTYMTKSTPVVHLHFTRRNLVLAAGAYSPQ
UniProt Q8IX01: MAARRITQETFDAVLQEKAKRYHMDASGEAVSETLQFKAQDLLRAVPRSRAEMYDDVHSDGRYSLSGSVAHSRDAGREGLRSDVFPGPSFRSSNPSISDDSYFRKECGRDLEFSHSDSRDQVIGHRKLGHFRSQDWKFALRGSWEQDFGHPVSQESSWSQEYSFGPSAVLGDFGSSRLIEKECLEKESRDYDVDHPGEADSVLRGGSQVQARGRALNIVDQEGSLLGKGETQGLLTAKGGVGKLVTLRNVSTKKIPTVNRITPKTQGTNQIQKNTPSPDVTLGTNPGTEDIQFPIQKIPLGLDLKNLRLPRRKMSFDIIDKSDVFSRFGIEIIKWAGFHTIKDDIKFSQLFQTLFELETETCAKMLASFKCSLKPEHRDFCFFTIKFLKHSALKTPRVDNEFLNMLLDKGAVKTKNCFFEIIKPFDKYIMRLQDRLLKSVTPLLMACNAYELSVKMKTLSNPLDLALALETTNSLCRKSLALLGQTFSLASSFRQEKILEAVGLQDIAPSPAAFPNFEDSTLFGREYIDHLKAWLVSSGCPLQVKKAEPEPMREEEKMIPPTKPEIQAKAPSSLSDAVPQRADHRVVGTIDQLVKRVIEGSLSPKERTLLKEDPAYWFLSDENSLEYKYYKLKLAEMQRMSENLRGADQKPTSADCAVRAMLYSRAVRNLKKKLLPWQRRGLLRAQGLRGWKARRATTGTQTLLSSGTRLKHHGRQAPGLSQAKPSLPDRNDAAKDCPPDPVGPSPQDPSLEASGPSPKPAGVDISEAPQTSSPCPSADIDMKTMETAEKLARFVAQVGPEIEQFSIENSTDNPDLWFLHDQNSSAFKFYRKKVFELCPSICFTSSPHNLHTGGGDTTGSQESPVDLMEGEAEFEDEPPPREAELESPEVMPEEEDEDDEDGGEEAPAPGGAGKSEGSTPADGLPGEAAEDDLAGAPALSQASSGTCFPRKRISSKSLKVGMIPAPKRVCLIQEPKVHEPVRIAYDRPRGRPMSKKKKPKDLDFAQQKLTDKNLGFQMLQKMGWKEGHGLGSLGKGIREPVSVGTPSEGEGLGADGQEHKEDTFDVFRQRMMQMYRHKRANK
UniProt Q96C24: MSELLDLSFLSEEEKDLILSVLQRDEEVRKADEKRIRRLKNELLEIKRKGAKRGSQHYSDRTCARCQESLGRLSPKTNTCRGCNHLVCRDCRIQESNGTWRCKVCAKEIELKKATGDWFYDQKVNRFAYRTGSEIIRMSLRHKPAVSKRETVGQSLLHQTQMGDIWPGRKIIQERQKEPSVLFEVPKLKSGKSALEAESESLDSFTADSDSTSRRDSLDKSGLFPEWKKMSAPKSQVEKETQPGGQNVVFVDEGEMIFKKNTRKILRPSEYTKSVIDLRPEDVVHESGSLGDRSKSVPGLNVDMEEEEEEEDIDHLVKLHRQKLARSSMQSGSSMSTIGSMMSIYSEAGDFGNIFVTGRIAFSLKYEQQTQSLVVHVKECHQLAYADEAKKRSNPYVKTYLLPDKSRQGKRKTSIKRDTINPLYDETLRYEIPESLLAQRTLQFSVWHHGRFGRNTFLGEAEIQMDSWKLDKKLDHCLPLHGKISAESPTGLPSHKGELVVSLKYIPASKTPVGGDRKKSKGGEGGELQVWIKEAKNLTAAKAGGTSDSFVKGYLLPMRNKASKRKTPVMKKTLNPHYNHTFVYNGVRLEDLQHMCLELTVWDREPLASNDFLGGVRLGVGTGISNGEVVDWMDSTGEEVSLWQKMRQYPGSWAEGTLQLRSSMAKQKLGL
UniProt Q01995: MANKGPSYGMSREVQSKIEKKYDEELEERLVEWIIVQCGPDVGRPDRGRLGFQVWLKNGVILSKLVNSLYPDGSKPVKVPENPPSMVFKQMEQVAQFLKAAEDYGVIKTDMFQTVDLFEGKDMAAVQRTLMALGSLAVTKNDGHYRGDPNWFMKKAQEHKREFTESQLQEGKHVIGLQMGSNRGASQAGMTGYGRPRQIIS

How the values were obtained:
Assay in all cases: log2 fold change, soluble protein after heating vs DMSO (PISA); higher = thermal stabilisation; K562 cells, 10 uM, 30 min; active = over 0.2 and 3.5 SD of the protein, either way, in both replicates (recomputed)
[1] = compound: NC(=O)Nc1cc(-c2cccc(F)c2)sc1C(=O)N[C@H]1CCCNC1
How it was run: (§1)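 Soluble protein was defined as the supernatant after 21,000xg for 90 min. It came from K562 cells at 2×10^6 cells/mL given 10 μM compound for 30 min, heated in aliquots for 3 min across 48°C-58°C, pooled, and extracted in PBS with 0.5% NP-40 at 4°C, and was quantified by TMTpro 16plex LC-MS/MS with equalised channel sums. Thermal stability against control samples, from duplicates, is reported as log2 fold change.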

[2] = compound: NC(=O)c1cnc(N[C@@H]2CCCC[C@@H]2N)nc1Nc1cccc(-n2nccn2)c1
How it was run: as §1

[3] = compound: NC1(c2ccc(-c3nc4ccn5c(=O)[nH]nc5c4cc3-c3ccccc3)cc2)CCC1
How it was run: as §1

[4] = compound: NCC(=O)Nc1ccc(-n2nc(C(F)(F)F)cc2-c2ccc3c(ccc4ccccc43)c2)cc1
How it was run: as §1

[5] = compound: Nc1ccccc1NC(=O)c1ccc(CNC(=O)OCc2cccnc2)cc1 [entinostat]
How it was run: as §1

[6] = compound: O=C(CCCCCCC(=O)Nc1ccccc1)NO [vorinostat]
How it was run: as §1

[7] = compound: O=C(CCCCCCNC(=O)c1cnc(N(c2ccccc2)c2ccccc2Cl)nc1)NO [citarinostat]
How it was run: as §1

[8] = compound: O=C(O)c1ccc2c(c1)nc(Nc1cccc(Cl)c1)c1ccncc12 [silmitasertib]
How it was run: as §1

[9] = compound: O=C1NC(=O)C(c2cnc3ccccn23)=C1c1cn2c3c(cc(F)cc13)CN(C(=O)N1CCCCC1)CC2
How it was run: as §1

[10] = compound: c1cc(OCCN2CCCCC2)cc(-c2n[nH]c3ccc(-c4nnc[nH]4)cc23)c1
How it was run: as §1

| Target | log2 fold change [1] | log2 fold change [2] | log2 fold change [3] | log2 fold change [4] | log2 fold change [5] | log2 fold change [6] | log2 fold change [7] | log2 fold change [8] | log2 fold change [9] | log2 fold change [10] |
| --- | --- | --- | --- | --- | --- | --- | --- | --- | --- | --- |
| STRN (UniProt O43815) | inactive: -0.055 | inactive: 0.019 | inactive: -0.037 | inactive: 0.019 | inactive: -0.008 | inactive: 0.024 | inactive: 0.028 | inactive: 0 | inactive: -0.051 | inactive: -0.031 |
| TAX1BP1 (UniProt Q86VP1) | inactive: 0.028 | inactive: -0.062 | inactive: -0.202 | inactive: -0.102 | inactive: -0.013 | inactive: -0.183 | inactive: 0.061 | inactive: 0.042 | inactive: -0.011 | inactive: -0.081 |
| STX10 (UniProt O60499) | inactive: 0.026 | inactive: 0.07 | inactive: 0.013 | inactive: -0.022 | inactive: -0.023 | inactive: -0.013 | inactive: -0.019 | inactive: 0.089 | inactive: -0.034 | inactive: 0.062 |
| TAF4 (UniProt O00268) | inactive: -0.038 | inactive: 0.104 | inactive: 0.074 | inactive: 0.229 | inactive: -0.046 | inactive: 0.118 |  | inactive: 0.028 | inactive: -0.06 |  |
| SVIP (UniProt Q8NHG7) | inactive: -0.081 | inactive: 0.188 | inactive: 0.051 | inactive: 0.001 | inactive: -0.041 | inactive: -0.074 | inactive: -0.023 | inactive: -0.024 | inactive: -0.094 | inactive: -0.124 |
| TAGLN2 isoform 2 (UniProt P37802) | inactive: -0.025 | inactive: 0.008 | inactive: -0.001 | inactive: 0.016 | inactive: 0.058 | inactive: 0.026 | inactive: 0.06 | inactive: -0.036 | inactive: -0.035 | inactive: -0.008 |
| STOML2 (UniProt Q9UJZ1) | inactive: 0.052 | inactive: 0 | inactive: -0.009 | inactive: 0.031 | inactive: -0.008 | inactive: -0.055 | inactive: 0.013 | inactive: -0.013 | inactive: -0.027 | inactive: 0.107 |
| STK4 (UniProt Q13043) | active: 0.248 | inactive: -0.031 | inactive: -0.1 | inactive: 0.006 | inactive: -0.041 | inactive: 0.011 | inactive: 0.064 | inactive: -0.015 | inactive: -0.031 | inactive: -0.122 |
| STX17 (UniProt P56962) | inactive: 0.027 | inactive: -0.073 | inactive: -0.096 | inactive: 0.126 | inactive: -0.001 | inactive: -0.02 | inactive: 0.254 | inactive: 0.087 | inactive: -0.026 | inactive: -0.059 |
| STMN1 (UniProt P16949) | inactive: 0.029 | inactive: 0.011 | inactive: 0.042 | inactive: 0.022 | inactive: -0.027 | inactive: 0.032 | inactive: -0.058 | inactive: -0.078 | inactive: -0.007 | inactive: 0.052 |
| STXBP1 (UniProt P61764) | inactive: 0.042 | inactive: -0.067 | inactive: -0.162 | inactive: -0.086 | inactive: -0.011 | inactive: 0.131 | inactive: 0.077 | inactive: 0.016 | inactive: 0.158 | inactive: 0.162 |
| STX12 (UniProt Q86Y82) | inactive: -0.02 | inactive: 0.109 | inactive: -0.04 | inactive: 0.024 | inactive: -0.09 | inactive: -0.019 | inactive: 0.017 | inactive: -0.029 | inactive: -0.022 | inactive: -0.001 |
| TAF12 (UniProt Q16514) | inactive: 0.181 |  | inactive: -0.141 | inactive: 0.056 | inactive: 0.04 | inactive: -0.022 | inactive: -0.041 | inactive: 0.082 |  | inactive: -0.029 |
| TAF5 (UniProt Q15542) |  |  |  | inactive: -0.143 |  | inactive: -0.052 |  |  | inactive: 0.028 |  |
| SUGP2 (UniProt Q8IX01) | inactive: 0.016 |  |  |  | inactive: 0.022 |  |  |  | inactive: 0 |  |
| SYTL4 (UniProt Q96C24) | inactive: 0.037 | inactive: -0.026 | inactive: -0.043 |  | inactive: -0.128 |  |  | inactive: 0.029 | inactive: -0.046 |  |
| TAGLN (UniProt Q01995) | inactive: 0.042 |  |  |  | inactive: 0.122 | inactive: -0.014 | inactive: 0.06 |  |  | inactive: -0.111 |

Complete entries from above. Values in the order: log2 fold change [1] | log2 fold change [2] | log2 fold change [3] | log2 fold change [4] | log2 fold change [5] | log2 fold change [6] | log2 fold change [7] | log2 fold change [8] | log2 fold change [9] | log2 fold change [10]
TAX1BP1 (UniProt Q86VP1) as listed: inactive: 0.028 | inactive: -0.062 | inactive: -0.202 | inactive: -0.102 | inactive: -0.013 | inactive: -0.183 | inactive: 0.061 | inactive: 0.042 | inactive: -0.011 | inactive: -0.081
STK4 (UniProt Q13043) as listed: active: 0.248 | inactive: -0.031 | inactive: -0.1 | inactive: 0.006 | inactive: -0.041 | inactive: 0.011 | inactive: 0.064 | inactive: -0.015 | inactive: -0.031 | inactive: -0.122
